In publication PMC5785358, “The STENOFOLIA gene from Medicago alters leaf width, flowering time and chlorophyll content in transgenic wheat” one finds binding data, which are given here for four substances.

Results are given in words; binding and its absence hold for the method and conditions named. Binding seen in cells or lysates may run through a third protein. Binding can be weak; no strength is given. Where a sequence is shown, tags or fusion partners need not be part of it.

For assay [1], the target named is T1, STFb-YC (STF a.a. 160-358 fused to a YFP fragment) (Medicago truncatula) (UniProt G0ZGT3).
T1 sequence: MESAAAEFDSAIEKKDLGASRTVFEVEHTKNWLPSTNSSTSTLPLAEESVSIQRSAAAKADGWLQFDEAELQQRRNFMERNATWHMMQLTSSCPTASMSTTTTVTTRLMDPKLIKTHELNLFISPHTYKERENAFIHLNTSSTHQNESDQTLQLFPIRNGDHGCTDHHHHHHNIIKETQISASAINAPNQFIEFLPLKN
The assay can be described thus: split reporter; BiFC: STFa or STFb in pEG202-YC with wheat proteins in pEG201-YN, transient expression in leaves of 5-week-old N. benthamiana; leaf discs imaged 3 days after infiltration.

In assay [2] the target is T2, STFa-YC (STF a.a. 1-242 fused to a YFP fragment) (Medicago truncatula) (UniProt G0ZGT3).
T2 sequence: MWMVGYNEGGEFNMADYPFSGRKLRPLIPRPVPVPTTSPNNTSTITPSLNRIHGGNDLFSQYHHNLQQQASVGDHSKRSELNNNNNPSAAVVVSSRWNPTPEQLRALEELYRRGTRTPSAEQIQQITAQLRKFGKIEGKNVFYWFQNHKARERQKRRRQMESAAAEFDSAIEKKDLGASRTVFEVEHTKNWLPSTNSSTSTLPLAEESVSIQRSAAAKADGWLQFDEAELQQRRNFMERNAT
The assay is described as above.

“Ta6SFT1-YN (sucrose:fructan-6-fructosyltransferase fused to a YFP fragment) (wheat (Triticum aestivum))”: the binding entry in assay [1] is “binds”.
The same measure, in the same setting: the result for “TaCCDP1-YN (carbon catabolite-depressing protein kinase fused to a YFP fragment) (wheat (Triticum aestivum))” reads “binds”.
With “TaSRP1-YN (stress responsive protein fused to a YFP fragment) (wheat (Triticum aestivum))”, the binding entry in assay [2] is recorded as “binds”.
With “TaSTK1-YN (serine/threonine kinase fused to a YFP fragment) (wheat (Triticum aestivum))”, the binding entry in assay [2] is on record as “binds”.
